Source: patent publication US8466089B2, “Pyrazole compounds, process for their production and herbicides containing them” (Ishihara Sangyo Kaisha, Ltd., priority 2008, dated 2013)

system: sorgo (Sorghum bicolor Moench) (var.: Lucky Sorgo); test: Test Example 6, soil column downward movement, sorgo bioassay; assay type: in vivo; details: 250 g/ha, water dropped 400 mL/hr for about 3 hours
Method: Soil (sterilized soil:sand=3:1) was packed (4 L) into a column (9.5 cm in diameter×40 cm in height, application area: 0.007 m^2), and tap water was dropped from above by a Peristaltic pump before application of the herbicide for the purpose of maintaining the soil moisture to be uniform. Then, 10 mL of a spray solution prepared so that each agent (Compound No. 2-1, the above Reference Compounds 1 and 2) would be at a concentration corresponding to 250 g/ha was dropwise applied by a pipette. After application, water was dropped again at a rate of 400 mL/hr for about 3 hours by means of a Peristaltic pump. After the dropping, the column was left to stand for 1 day, and then the column was vertically evenly divided and seeds of sorgo (Sorghum bicolor Moench) (var.: Lucky Sorgo) were sown in a row. On the 14th day after sowing, the state of growth of the plant was visually observed at 3 cm intervals from the application point of the agent, whereby the germination and the degree of growth were evaluated by a growth inhibition rate (%) of 0 (equivalent to the non-treated area) to 100% (complete kill) to obtain the results in Table 17.
From the above results, the growth inhibition rates of Reference Compounds No. 1 and No. 2 are observed in depths deeper than that of Compound No. 2-1. […] Whereas, Compound No. 2-1 stayed at a shallow portion of soil (in a layer of from 0 to 9 cm).

Row | SMILES | downward movement of the active ingredient in soil
1 | CCn1ncc(C(=O)c2ccc(S(C)(=O)=O)c(OCCOC)c2C)c1OC(C)OC(=O)OC (stereo not drawn) [Compound No. 2-1, 1-(1-Ethyl-4-(3-(2-methoxyethoxy)-2-methyl-4-(methylsulfonyl)benzoyl)-1H-pyrazol-5-yloxy)ethyl methyl carbonate] | scarcely moved downward
2 | CCn1ncc(C(=O)c2ccc(S(C)(=O)=O)c(OCCOC)c2Cl)c1O [Reference Compound 1] | moved to deeper depths
3 | COCCOc1c(S(C)(=O)=O)ccc(C(=O)c2cnn(C(C)C)c2O)c1Cl [Reference Compound 2] | moved to deeper depths
